Laboratory results from US20180208648A1.
Results are given in words; binding and its absence hold for the method and conditions named. Some entries that bind do so weakly or less than the wild type.

Protein sequences, listed by entry. Tags and fused reporters are not part of them. Lines headed by an entry give the natural chain unless they say otherwise; changes in a name come on top.
UniProt O95390: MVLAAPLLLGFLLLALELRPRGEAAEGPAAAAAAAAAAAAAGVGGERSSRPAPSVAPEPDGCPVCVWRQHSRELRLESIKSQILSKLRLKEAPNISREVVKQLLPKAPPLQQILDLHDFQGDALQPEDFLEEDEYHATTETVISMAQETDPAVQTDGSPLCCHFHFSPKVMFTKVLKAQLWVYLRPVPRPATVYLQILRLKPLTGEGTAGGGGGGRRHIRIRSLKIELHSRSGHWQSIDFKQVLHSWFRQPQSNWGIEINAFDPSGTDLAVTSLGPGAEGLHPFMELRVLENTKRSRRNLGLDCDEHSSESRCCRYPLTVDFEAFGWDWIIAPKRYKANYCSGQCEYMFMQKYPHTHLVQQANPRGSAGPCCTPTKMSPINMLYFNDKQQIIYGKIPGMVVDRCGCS
UniProt O14793: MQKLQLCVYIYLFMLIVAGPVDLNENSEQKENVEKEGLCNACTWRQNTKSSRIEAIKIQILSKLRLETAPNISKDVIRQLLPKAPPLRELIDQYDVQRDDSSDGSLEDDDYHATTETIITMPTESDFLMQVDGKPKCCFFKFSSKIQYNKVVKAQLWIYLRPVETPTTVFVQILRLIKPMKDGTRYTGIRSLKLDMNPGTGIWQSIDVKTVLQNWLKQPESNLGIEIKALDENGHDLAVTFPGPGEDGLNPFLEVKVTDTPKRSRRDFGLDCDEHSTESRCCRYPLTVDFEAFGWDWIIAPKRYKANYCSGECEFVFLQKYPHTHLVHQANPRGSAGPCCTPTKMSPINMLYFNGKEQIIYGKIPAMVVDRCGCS
UniProt Q9Z1W4: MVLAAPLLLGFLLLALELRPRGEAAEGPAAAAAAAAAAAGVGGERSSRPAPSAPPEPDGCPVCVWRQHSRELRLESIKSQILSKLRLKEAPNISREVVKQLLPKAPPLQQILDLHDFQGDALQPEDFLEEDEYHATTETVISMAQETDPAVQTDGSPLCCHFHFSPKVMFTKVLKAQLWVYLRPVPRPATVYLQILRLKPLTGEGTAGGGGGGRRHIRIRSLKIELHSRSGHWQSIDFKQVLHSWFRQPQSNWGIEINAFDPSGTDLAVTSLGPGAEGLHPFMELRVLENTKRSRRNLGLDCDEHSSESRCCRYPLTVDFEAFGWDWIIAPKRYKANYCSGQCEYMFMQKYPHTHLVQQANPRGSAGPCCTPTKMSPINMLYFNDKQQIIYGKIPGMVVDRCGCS

Key:
Assay in all cases: ELISA, biotinylated antigen on neutravidin plate
[1] = target: human latent GDF11 (human) (UniProt O95390)
human proGDF8 (human) = human proGDF8 (human) (UniProt O14793)
[2] = target: human prodomain GDF11 ARM8 (human)
[3] = target: murine latent GDF11 (mouse) (UniProt Q9Z1W4)
human proGDF11 (human) = human proGDF11 (human) (UniProt O95390)
murine proGDF11 (mouse) = murine proGDF11 (mouse) (UniProt Q9Z1W4)
[4] = target: human proGDF11 ARM8 (human)
[5] = target: human mature GDF11 (human) (UniProt O95390)

Measured: binding

B1: GDF11 Inh-1 (antibody, V domains shown)
VH: EVQLLESRGGLVQPGRSLRLSCAASGFTFDDYAMHWVRQAPGKGLEWVSGISWNSGSIGYADSVKGRFTISRDNTKNSLYLQMNSLRAEDTGVYYCAREVTGDLDYWGQGTLVTVSS
VL: EIVMTQSPGTLSLSPGERATLSCRASQFLSSTYLAWYQQRPGQAPRLLIYSASNRATGVPDRFSGSGSGTDFTLKISRVEAEDVGVYYCMQATHWPYTFGQGTKLEIKR
not listed: [4] | [5]
binds: all other assays above

B2: GDF11 Inh-5 (antibody, V domains shown)
VH: EVQLVQSGAEVKKPGASVKVSCKASGYTFTGYYIYWVRQAPGQGLEWMGWIRPNSGDTNYAQKFQDRLTMTRDTSISTAYMELSRLRSDDTAVYYCAGNYDILTGYQAPLGYWGQGALVTVSS
VL: DIVLTQSPATLSVSPGERATLSCRASQRVISNYLAWYQQKPGQAPRLLIYGASSRATGIPDRFSGSGSGTDFTLSISRLEPEDFAVYYCQHYGPFGGGTKVEIKR
not listed: human proGDF8 (human)
binds: all other assays above

B3: GDF11 Inh-4 (antibody, V domains shown)
VH: QVQLVQSGAEVKKPGASVKVSCKASGYTFTSYGISWVRQAPGQGLEWMGWISAYNGNTNYAQKLQGRVTMTTDTSTSTAYMELRSLRSDDTAVYYCARTPPLWFGEYGAFDIWGQGAMVTVSS
VL: DIQMTQSPSSLSASVGDRVTITCQASQDISNYLNWYQQKPGKAPKLLIYDASNLETGVPSRFSGSGSGTDFTLTISSLQPDDFATYYCQQSYTTPITFGQGTRLEIKR
binds: [1] | [3] | human proGDF11 (human) | murine proGDF11 (mouse)

B4: GDF11 Inh-3 (antibody, V domains shown)
VH: QVQLVQSGGGVVQPGRSLRLSCAASGFTFSSYAMHWVRQAPGKGLEWVAVISYDGSNEYYADSVKGRFTISRDNSKNTLYLQMNSLRAEDTAVYYCAKDFWSGYPQYNWFDPWGQGTLVTVSS
VL: EIVMTQSPATLSLSAGERATLSCRASQSVSNYLAWYQQKPGQAPRLLIYDASNRATGIPARFSGSGSGTDFTLTISSLEPEDFAVYYCQQYGSAPLTFGGGTNVEIKR
binds: [1] | [3] | human proGDF11 (human) | murine proGDF11 (mouse)

B5: GDF11 Inh-6 (antibody, V domains shown)
VH: QVQLQESGPGLVKPSETLSLTCTVSGGSISSSSYYWGWVRQPPGKGLEWIGEIYHSGSTNYNPSLKSRVTISVDTSKNQFSLKLSSVTAADTAVYYCARVGTSWEYYFDYWGQGTLVTVSS
VL: DIQMTQSPASLSASVGDRVTITCRTSQHIINYLNWYQQRPGKAPNLLIYKASTLQSGVPSRFSGSGSGTHFTLTISSLQPEDFATYYCQQYQSYPITFGQGTRLEIKR
binds: [1] | [5] | [3] | human proGDF11 (human) | murine proGDF11 (mouse)
